Reference: the M2OR odorant receptor database
The entries are a selection whose mix differs from that of the whole data set. The calls were merged from several studies; some rest on single wells. The list shows a part of the results.

Columns and labels:
Details in all cases: stereoisomer not certain
[1] = system: T1, OR6B1
T1 sequence (whole entry): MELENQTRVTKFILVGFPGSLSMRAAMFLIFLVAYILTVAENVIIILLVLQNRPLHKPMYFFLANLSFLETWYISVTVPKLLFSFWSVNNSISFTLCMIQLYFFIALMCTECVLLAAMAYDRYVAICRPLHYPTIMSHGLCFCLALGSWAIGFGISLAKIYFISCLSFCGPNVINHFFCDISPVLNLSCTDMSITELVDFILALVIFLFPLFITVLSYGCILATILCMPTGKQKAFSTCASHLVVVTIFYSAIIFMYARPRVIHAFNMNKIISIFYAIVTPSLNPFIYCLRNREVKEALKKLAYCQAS
Procedure, shortened: (§1)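 Whether a receptor–molecule pair is responsive (active) rests on the original authors' judgment that its measured signal was statistically different from baseline. Pairs without that judgment are non-responsive (inactive). Sources used varied assay methods, commonly transient luciferase assays in mammalian cell lines.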

[2] = system: T2, OR6B2
T2 sequence (whole entry): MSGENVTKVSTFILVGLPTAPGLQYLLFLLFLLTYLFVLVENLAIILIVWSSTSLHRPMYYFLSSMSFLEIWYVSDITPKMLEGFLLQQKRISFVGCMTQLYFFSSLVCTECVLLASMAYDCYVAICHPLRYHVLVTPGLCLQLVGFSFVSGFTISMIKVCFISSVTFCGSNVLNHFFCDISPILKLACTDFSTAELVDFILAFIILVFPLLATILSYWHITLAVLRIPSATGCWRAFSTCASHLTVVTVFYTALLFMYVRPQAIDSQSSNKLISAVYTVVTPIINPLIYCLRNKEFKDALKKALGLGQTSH
Procedure, shortened: as §1

[3] = system: T3, OR6B3
T3 sequence (whole entry): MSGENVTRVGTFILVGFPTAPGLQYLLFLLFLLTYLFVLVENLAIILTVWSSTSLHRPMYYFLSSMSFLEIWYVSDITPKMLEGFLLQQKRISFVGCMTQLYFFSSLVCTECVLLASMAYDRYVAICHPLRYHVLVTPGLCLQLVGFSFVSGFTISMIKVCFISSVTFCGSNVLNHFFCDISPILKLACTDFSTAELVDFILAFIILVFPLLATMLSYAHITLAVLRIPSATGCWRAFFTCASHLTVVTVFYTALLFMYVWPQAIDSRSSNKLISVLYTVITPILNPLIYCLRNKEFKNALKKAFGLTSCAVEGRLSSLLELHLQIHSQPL
Procedure, shortened: as §1

[4] = system: T4, OR6C1
T4 sequence (whole entry): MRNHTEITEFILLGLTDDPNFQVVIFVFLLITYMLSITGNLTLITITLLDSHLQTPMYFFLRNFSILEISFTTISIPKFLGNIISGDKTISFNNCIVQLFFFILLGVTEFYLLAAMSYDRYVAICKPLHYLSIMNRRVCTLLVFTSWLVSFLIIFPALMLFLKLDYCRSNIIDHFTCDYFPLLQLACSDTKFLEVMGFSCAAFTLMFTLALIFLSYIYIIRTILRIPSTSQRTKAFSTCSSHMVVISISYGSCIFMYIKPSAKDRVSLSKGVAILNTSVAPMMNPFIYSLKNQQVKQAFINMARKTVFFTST
Procedure, shortened: as §1

[5] = target: T5, OR6C2 (Homo sapiens) (UniProt Q9NZP2)
T5 sequence (whole entry): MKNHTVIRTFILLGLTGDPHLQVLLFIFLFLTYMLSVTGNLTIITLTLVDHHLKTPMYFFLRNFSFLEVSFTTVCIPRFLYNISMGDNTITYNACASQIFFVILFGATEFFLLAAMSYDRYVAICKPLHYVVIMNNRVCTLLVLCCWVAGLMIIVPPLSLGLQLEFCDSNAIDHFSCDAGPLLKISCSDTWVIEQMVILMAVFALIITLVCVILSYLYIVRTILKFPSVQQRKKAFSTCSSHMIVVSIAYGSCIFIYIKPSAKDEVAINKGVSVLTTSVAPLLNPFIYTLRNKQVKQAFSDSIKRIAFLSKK
Procedure, shortened: as §1

[6] = target: T6, OR6C3 (Homo sapiens) (UniProt Q9NZP0)
T6 sequence (whole entry): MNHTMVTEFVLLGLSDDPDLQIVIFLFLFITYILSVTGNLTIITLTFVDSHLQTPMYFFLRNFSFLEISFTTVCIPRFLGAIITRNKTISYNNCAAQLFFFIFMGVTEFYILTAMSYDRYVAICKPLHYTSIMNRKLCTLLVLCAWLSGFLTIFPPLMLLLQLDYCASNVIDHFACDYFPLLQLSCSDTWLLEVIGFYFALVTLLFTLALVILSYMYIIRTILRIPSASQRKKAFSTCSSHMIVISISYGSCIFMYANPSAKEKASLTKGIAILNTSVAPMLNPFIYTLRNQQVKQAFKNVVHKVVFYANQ
Procedure, shortened: as §1

[7] = system: T7, OR6C4
T7 sequence (whole entry): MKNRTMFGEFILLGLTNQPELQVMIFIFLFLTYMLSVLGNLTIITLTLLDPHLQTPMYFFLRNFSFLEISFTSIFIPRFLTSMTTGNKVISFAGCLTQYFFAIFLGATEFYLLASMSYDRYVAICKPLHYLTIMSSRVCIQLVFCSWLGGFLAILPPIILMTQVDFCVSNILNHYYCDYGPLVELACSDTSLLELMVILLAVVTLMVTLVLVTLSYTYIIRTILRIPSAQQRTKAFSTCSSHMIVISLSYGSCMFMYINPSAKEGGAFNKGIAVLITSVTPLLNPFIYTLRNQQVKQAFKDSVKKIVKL
Procedure, shortened: as §1

[8] = target: T8, OR6C6 (Homo sapiens) (UniProt A6NF89)
T8 sequence (whole entry): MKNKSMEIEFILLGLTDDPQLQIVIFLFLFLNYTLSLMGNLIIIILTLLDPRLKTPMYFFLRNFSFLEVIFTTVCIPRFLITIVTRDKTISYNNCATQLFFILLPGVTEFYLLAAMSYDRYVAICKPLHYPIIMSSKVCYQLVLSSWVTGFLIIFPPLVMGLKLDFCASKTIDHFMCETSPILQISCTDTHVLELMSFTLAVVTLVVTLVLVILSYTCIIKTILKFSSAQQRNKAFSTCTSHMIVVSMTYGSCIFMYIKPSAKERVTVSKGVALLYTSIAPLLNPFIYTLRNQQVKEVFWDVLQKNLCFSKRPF
Procedure, shortened: as §1

[9] = target: T9, OR6C65 (Homo sapiens) (UniProt A6NJZ3)
T9 sequence (whole entry): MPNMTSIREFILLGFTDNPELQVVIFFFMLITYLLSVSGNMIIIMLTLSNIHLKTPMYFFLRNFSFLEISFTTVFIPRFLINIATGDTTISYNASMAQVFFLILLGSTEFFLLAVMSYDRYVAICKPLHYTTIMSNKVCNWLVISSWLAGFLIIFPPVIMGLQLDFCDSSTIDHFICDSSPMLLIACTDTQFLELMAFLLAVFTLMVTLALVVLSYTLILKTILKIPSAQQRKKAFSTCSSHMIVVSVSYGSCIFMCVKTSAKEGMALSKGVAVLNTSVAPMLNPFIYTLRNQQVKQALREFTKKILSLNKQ
Procedure, shortened: as §1

[10] = target: T10, OR6C74 (Homo sapiens) (UniProt A6NCV1)
T10 sequence (whole entry): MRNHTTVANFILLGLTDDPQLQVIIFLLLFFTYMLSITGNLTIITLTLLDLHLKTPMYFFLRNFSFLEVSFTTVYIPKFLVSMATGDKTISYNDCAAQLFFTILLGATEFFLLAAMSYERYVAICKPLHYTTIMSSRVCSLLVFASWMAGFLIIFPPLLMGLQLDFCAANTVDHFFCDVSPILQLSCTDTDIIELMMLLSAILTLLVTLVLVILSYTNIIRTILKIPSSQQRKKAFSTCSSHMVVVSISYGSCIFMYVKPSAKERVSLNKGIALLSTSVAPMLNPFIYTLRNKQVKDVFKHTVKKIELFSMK
Procedure, shortened: as §1

[11] = target: T11, OR6C75 (Homo sapiens) (UniProt A6NL08)
T11 sequence (whole entry): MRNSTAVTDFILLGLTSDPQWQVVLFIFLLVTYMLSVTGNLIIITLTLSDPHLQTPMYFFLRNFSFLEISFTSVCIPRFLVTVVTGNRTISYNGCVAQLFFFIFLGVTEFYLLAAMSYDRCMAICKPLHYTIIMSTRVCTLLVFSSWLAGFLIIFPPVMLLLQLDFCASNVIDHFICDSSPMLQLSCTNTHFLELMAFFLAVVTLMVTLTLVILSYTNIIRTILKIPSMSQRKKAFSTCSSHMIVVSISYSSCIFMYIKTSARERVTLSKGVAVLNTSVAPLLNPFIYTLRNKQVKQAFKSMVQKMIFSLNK
Procedure, shortened: as §1

[12] = target: T12, OR6C76 (Homo sapiens) (UniProt A6NM76)
T12 sequence (whole entry): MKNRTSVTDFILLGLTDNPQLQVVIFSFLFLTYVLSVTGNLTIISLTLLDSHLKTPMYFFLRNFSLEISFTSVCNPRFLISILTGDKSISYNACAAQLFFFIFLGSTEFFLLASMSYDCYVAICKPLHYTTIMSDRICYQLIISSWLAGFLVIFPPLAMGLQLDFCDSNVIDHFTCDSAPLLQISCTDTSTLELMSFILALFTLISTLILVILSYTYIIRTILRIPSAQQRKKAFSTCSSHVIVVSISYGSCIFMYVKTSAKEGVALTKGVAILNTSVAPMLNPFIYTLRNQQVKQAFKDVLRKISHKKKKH
Procedure, shortened: as §1

[13] = target: T13, OR6F1 (Homo sapiens) (UniProt Q8NGZ6)
T13 sequence (whole entry): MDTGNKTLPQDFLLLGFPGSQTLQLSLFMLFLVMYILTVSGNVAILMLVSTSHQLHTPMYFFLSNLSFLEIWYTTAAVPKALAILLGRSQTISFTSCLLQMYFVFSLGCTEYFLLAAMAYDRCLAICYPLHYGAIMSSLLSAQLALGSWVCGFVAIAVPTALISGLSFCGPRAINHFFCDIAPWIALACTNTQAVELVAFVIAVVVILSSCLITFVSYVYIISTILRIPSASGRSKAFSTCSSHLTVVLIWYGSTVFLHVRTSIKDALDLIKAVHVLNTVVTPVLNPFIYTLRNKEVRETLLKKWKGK
Procedure, shortened: as §1

Measured: odorant receptor agonist call;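 also: active if original authors judged signal statistically different from baseline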

COC(=O)c1ccccc1
active: [13]
inactive: [1] | [2] | [3] | [4] | [5] | [6] | [7] | [8] | [9] | [10] | [11] | [12]

CCCCCC(=O)O
inactive: [1] | [2] | [3] | [4] | [5] | [6] | [7] | [8] | [9] | [10] | [11] | [12] | [13]

CCCCCC(C)=O
inactive: [1] | [2] | [3] | [4] | [5] | [6] | [7] | [8] | [9] | [10] | [11] | [12] | [13]

CC1=CCC(C(C)(C)O)CC1 (stereo not given)
inactive: [1] | [2] | [3] | [4] | [5] | [6] | [7] | [8] | [9] | [10] | [11] | [12] | [13]

CCCCO
inactive: [1] | [2] | [3] | [4] | [5] | [6] | [7] | [8] | [9] | [10] | [11] | [12] | [13]

CC(=O)C(C)=O
inactive: [1] | [2] | [3] | [4] | [5] | [6] | [7] | [8] | [9] | [10] | [11] | [12] | [13]

CC1CCC(C(C)C)C(O)C1 (stereo not given)
inactive: [1] | [2] | [3] | [4] | [5] | [6] | [7] | [8] | [10] | [12] | [13]
active: [9] | [11]

CC(=O)OC1CC2CCC1(C)C2(C)C (stereo not given)
inactive: [1] | [2] | [3] | [4] | [5] | [6] | [7] | [8] | [9] | [10] | [11] | [12] | [13]

CC(C)=CCCC(C)=CC=O
inactive: [1] | [2] | [3] | [4] | [5] | [6] | [7] | [8] | [9] | [10] | [11] | [12] | [13]

CCCCCCCCCC=O
inactive: [1] | [2] | [3] | [4] | [5] | [6] | [7] | [8] | [9] | [10] | [11] | [12] | [13]

A draw from above in order of length of the SMILES, rising.
CCCCCC(=O)O
inactive: [1] | [2] | [3] | [4] | [5] | [6] | [7] | [8] | [9] | [10] | [11] | [12] | [13]

CC(=O)C(C)=O
inactive: [1] | [2] | [3] | [4] | [5] | [6] | [7] | [8] | [9] | [10] | [11] | [12] | [13]

CC1=CCC(C(C)(C)O)CC1 (stereo not given)
inactive: [1] | [2] | [3] | [4] | [5] | [6] | [7] | [8] | [9] | [10] | [11] | [12] | [13]
